The other results are listed elsewhere or left out.
Tests used:
Assay in all cases: log2 fold change, soluble protein after heating vs DMSO (PISA); higher = thermal stabilisation; K562 cells, 10 uM, 30 min; active = over 0.2 and 3.5 SD of the protein, either way, in both replicates (recomputed)
[1] = compound: CC1=C(C=C(C=C1)NC(=O)C2=CC(=CC=C2)C(C)(C)C#N)NC3=CC4=C(C=C3)N=CN(C4=O)C
In short: (§1)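 Values are thermal stability changes relative to control samples and are taken from duplicates. They are stated as log2 fold changes. Before quantification by TMTpro 16plex LC-MS/MS with equalised channel sums, K562 cells at 2×10^6 cells/mL were treated with 10 μM compound for 30 min, heated in aliquots for 3 min across 48°C-58°C, pooled, extracted in PBS with 0.5% NP-40 at 4°C, and centrifuged at 21,000xg for 90 min to give the soluble supernatant.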

Protein sequences, listed by entry. Tags and fused reporters are not part of them. Lines headed by an entry give the natural chain unless they say otherwise; changes in a name come on top.
UniProt O75348, whole entry, looked up: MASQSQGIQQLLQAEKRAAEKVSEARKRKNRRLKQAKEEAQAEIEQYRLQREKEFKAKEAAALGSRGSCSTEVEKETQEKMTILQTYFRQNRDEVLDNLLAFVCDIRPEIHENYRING
UniProt Q96IX5: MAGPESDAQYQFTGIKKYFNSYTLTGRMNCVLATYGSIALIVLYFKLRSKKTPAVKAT
UniProt Q96DT6: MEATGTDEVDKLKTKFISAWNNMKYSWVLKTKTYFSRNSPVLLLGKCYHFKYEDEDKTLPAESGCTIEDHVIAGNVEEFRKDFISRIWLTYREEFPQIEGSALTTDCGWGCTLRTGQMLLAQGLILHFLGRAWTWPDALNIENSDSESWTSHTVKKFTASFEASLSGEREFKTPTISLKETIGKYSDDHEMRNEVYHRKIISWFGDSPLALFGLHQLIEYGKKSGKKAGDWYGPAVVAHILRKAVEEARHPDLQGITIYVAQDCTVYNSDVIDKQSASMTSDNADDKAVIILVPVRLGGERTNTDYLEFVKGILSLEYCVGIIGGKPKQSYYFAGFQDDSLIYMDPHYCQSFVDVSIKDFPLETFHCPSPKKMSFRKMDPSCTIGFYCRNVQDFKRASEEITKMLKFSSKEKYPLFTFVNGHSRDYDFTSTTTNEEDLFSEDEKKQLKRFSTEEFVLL
UniProt Q9NVJ2: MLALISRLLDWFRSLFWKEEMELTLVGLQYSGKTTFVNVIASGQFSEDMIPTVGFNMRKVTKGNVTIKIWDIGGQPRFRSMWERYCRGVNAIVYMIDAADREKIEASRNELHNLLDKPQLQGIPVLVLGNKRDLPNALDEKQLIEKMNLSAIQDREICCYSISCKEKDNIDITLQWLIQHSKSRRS
UniProt L0R819, whole entry, looked up: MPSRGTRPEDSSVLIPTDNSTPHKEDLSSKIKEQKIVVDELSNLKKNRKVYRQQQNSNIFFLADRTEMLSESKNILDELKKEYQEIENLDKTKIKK
UniProt P56378: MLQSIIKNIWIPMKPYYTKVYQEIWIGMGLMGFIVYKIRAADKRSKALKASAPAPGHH
UniProt P36404: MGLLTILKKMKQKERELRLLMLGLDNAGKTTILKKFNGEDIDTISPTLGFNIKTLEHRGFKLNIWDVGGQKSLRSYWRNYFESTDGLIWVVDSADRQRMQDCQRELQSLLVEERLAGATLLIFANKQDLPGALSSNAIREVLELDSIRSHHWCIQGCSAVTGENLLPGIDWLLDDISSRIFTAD
UniProt P16615: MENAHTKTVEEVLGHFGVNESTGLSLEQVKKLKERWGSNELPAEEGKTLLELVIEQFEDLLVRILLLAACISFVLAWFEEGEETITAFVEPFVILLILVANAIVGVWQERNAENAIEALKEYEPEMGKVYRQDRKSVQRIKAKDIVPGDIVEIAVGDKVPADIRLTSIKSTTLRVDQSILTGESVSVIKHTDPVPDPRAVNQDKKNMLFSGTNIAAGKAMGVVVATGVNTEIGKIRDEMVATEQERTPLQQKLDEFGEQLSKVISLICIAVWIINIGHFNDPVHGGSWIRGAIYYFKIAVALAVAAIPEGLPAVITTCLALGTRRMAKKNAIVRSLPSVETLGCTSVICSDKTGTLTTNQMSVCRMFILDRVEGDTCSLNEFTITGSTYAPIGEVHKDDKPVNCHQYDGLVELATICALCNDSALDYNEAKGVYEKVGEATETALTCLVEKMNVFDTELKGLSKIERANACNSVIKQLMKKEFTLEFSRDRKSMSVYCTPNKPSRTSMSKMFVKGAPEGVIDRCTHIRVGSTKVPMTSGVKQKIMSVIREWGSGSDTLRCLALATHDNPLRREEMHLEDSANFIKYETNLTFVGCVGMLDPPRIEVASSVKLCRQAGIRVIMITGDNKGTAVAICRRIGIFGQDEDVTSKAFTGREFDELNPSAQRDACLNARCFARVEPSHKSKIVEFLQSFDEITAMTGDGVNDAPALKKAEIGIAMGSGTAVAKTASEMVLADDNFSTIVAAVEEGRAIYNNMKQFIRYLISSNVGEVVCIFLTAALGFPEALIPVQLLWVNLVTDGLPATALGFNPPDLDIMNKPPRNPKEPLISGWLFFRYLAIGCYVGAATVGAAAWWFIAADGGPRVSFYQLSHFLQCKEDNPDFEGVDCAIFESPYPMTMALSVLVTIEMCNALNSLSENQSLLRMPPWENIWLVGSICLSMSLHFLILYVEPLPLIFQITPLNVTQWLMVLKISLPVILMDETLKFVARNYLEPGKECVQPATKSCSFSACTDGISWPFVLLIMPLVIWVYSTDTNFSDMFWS
UniProt O75143: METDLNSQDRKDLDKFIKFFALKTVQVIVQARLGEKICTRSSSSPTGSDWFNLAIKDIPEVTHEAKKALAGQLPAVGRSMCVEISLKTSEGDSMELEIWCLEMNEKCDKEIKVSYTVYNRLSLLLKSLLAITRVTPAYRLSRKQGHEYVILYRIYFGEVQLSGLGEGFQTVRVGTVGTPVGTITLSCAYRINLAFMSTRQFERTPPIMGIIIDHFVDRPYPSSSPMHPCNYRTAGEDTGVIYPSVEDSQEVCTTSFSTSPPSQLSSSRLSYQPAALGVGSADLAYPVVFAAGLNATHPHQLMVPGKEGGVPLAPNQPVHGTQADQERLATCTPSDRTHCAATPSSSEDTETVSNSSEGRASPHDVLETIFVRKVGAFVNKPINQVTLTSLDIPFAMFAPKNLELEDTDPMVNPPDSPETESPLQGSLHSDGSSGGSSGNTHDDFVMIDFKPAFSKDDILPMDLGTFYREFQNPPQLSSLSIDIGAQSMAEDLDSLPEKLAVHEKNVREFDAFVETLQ
UniProt Q13315: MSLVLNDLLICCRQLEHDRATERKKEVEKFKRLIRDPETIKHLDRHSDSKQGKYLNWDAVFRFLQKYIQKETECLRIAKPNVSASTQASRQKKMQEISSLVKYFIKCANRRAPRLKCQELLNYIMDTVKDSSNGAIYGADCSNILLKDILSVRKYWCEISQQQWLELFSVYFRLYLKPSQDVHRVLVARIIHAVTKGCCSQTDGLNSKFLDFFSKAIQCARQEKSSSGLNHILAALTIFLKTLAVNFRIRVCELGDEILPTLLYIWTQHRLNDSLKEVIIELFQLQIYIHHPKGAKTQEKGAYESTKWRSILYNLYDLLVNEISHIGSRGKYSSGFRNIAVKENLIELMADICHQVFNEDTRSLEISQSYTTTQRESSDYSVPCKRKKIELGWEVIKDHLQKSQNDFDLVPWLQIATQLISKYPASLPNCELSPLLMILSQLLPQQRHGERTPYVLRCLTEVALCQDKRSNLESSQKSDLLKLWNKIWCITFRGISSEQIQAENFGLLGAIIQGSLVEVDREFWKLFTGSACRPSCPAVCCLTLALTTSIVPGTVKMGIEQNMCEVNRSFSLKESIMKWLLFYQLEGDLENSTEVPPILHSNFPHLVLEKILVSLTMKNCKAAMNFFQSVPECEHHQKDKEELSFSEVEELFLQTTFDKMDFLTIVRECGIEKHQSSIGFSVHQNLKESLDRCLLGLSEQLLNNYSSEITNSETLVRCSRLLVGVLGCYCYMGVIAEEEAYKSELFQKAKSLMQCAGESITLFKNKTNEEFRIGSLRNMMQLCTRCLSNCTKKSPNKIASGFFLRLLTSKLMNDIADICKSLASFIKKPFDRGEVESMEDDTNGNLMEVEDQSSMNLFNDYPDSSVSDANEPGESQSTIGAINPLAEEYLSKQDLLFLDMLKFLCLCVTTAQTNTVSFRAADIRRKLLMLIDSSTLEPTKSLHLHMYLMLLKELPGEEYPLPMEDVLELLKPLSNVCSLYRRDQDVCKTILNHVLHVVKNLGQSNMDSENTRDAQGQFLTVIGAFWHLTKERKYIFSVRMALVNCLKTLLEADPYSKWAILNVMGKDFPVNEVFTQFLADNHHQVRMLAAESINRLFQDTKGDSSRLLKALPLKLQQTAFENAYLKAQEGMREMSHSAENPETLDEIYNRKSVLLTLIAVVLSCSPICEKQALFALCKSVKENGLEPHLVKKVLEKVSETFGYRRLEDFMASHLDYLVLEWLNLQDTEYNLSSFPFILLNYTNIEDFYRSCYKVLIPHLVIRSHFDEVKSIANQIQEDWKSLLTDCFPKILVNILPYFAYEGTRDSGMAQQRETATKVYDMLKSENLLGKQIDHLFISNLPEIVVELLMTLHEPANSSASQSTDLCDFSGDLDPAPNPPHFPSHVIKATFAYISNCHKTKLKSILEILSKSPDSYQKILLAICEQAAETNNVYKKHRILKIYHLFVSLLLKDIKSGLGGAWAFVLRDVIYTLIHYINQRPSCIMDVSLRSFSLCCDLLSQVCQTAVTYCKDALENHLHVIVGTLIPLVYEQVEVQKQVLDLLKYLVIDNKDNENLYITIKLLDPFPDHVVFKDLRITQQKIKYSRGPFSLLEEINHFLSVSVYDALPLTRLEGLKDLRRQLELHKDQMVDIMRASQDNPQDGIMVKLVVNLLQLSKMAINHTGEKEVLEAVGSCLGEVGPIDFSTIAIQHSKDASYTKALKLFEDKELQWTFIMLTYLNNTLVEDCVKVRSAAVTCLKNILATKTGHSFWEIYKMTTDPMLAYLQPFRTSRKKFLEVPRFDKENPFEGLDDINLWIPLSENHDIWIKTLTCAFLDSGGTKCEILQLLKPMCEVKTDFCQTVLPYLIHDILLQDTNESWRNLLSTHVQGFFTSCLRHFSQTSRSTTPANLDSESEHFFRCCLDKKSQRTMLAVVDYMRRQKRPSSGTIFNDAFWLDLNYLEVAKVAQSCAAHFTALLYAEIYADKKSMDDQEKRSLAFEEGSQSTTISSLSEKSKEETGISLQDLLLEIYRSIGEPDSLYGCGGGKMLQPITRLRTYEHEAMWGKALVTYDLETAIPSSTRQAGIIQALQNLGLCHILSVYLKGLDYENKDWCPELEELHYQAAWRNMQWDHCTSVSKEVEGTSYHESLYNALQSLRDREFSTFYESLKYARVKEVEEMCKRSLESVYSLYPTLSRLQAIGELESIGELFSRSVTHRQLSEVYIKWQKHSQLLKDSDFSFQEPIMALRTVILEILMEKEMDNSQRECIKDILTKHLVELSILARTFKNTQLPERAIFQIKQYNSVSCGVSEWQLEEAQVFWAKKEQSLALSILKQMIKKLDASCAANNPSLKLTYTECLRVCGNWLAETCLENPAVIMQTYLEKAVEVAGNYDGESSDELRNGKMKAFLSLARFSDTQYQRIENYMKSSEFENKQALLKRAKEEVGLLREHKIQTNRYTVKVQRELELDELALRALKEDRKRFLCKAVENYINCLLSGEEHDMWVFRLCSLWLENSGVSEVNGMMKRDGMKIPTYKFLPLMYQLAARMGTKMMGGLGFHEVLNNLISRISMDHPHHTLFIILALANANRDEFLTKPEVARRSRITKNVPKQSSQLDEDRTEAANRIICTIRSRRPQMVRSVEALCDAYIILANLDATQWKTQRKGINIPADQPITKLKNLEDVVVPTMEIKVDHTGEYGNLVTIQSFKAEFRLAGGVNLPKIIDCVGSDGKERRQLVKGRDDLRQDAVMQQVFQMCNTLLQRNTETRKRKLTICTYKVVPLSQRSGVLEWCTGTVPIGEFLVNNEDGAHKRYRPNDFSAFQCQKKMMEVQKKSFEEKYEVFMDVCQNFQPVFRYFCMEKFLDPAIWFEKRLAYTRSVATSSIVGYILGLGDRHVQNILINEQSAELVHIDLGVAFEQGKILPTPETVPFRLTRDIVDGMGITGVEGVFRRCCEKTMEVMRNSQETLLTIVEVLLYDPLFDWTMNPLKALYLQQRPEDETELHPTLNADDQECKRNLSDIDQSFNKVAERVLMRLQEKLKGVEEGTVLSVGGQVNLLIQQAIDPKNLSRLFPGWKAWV
UniProt P30049: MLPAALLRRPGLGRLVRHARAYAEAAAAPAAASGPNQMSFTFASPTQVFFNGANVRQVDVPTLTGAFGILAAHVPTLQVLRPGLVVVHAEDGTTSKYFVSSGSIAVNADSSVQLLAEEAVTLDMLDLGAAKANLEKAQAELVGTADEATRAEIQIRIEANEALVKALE
UniProt Q9NXU5: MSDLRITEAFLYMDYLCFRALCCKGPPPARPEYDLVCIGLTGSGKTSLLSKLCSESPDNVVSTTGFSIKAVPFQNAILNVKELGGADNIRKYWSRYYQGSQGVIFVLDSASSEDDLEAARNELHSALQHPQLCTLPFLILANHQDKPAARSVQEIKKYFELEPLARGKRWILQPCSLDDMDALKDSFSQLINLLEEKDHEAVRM
UniProt P49407: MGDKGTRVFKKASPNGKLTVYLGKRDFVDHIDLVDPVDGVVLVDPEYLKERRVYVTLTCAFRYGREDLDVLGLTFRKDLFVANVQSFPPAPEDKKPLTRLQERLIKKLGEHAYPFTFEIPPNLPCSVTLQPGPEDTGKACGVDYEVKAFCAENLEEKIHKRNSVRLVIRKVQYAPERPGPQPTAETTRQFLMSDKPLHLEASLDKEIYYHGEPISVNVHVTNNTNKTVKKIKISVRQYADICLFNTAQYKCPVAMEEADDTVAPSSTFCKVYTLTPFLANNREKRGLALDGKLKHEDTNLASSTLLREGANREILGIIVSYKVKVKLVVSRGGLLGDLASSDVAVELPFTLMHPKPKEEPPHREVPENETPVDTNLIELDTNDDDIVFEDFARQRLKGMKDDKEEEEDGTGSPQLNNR

[2] = compound: CC1=C(C=C(C=C1)NC(=O)C2=CC(=CC=C2)N(C)C)NC(=O)C3=CC=C(C=C3)O
In short: as §1

[3] = compound: CC1=CC=C(C=C1)SC2=C3C=C(SC3=CN=C2)C(=O)N
In short: as §1

[4] = compound: CC1=NC(=CC=C1)C2=C(N=C(N2)C(C)(C)C)C3=CC4=NC=CN=C4C=C3
In short: as §1

[5] = compound: CCCCN(Cc1ccc(C(=O)NO)cc1)C(=O)Nc1ccccc1 [Nexturastat A]
In short: as §1

[6] = compound: CCCS(=O)(=O)Nc1ccc(F)c(C(=O)c2c[nH]c3ncc(-c4ccc(Cl)cc4)cc23)c1F [vemurafenib]
In short: as §1

[7] = compound: CCCS(=O)(=O)Nc1ccc(F)c(C(=O)c2c[nH]c3ncc(Cl)cc23)c1F
In short: as §1

[8] = compound: CCCc1cc(C)[nH]c(=O)c1CNC(=O)c1cc(-c2ccnc(N3CCN(C)CC3)c2)cc2c1cnn2C(C)C
In short: as §1

[9] = compound: CCN(CC)Cc1ccc2cc(COC(=O)Nc3ccc(C(=O)NO)cc3)ccc2c1 [givinostat]
In short: as §1

[10] = compound: CCN(CCCOc1ccc2c(Nc3cc(CC(=O)Nc4cccc(F)c4)[nH]n3)ncnc2c1)CCOP(=O)(O)O [barasertib]
In short: as §1

[11] = compound: CC[C@@H]1C(=O)N(C)c2cnc(Nc3ccc(C(=O)NC4CCN(C)CC4)cc3OC)nc2N1C1CCCC1
In short: as §1

[12] = compound: CC[C@@H]1C(=O)N(C)c2cnc(Nc3ccc(C(=O)N[C@H]4CC[C@H](N5CCN(CC6CC6)CC5)CC4)cc3OC)nc2N1C(C)C [volasertib]
In short: as §1

[13] = compound: CC[C@H](C)N1C=C(C2=C(C=C(C=C21)C3=CN=C(C=C3)N4CCNCC4)C(=O)NCC5=C(C=C(NC5=O)C)C)C
In short: as §1

[14] = compound: CC[C@H](C)[C@@H](C(=O)N[C@@H]([C@@H](C)O)C(=O)N[C@@H](CC(C)C)C(=O)[C@]1(CO1)C)NC(=O)[C@H]([C@@H](C)CC)N(C)C(=O)C [epoxomicin]
In short: as §1

[15] = compound: CCn1c(C(=O)N(C2CC2)C2CC2)cc2c3c(ncn3C)c(Nc3cc(C)n(C)n3)nc21
In short: as §1

[16] = compound: CCn1cc(-c2ccnc3[nH]c(-c4cccc(CN(C)C)c4)cc23)c(-c2ccc(NC(=O)N(C)C)cc2)n1
In short: as §1

[17] = compound: CN(C)CC(=O)Nc1ccc2[nH]c(=O)c3ccccc3c2c1
In short: as §1

[18] = compound: CN(CCOC1=CC=C(C=C1)C[C@H]2C(=O)NC(=O)S2)C3=CC=CC=N3 (racemic) [rosiglitazone]
In short: as §1

[19] = compound: CN1C2=C(C3=C1C(=O)N(N=C3)CC4=CC(=CC=C4)N)SC(=C2)S(=O)C
In short: as §1

[20] = compound: CN1CCC(CNc2ccc3ncc(-c4cccc(OC(F)(F)F)c4)n3n2)CC1
In short: as §1

Measured: log2 fold change

ATP6V1G1 (UniProt O75348)
inactive: [1] -0.049 | [2] 0.002 | [3] 0.037 | [4] 0.022 | [5] -0.009 | [6] -0.092 | [7] 0.006 | [8] -0.023 | [9] -0.005 | [10] 0.006 | [11] -0.066 | [12] -0.031 | [13] 0.002 | [14] -0.015 | [15] 0.028 | [16] -0.093 | [17] -0.065 | [18] -0.04 | [19] -0.037 | [20] -0.128

ATP5MD (UniProt Q96IX5)
inactive: [1] 0.041 | [2] -0.073 | [3] 0.021 | [4] 0.063 | [5] -0.055 | [6] -0.071 | [7] -0.004 | [8] 0.133 | [9] -0.11 | [10] 0.05 | [11] 0.024 | [12] 0.016 | [13] 0.054 | [14] 0.102 | [15] 0.108 | [16] 0.001 | [17] 0 | [18] -0.119 | [19] -0.005 | [20] -0.151

ATG4C (UniProt Q96DT6)
inactive: [1] -0.067 | [2] 0.087 | [3] -0.011 | [4] -0.025 | [5] 0.043 | [6] 0.015 | [7] 0.043 | [8] -0.195 | [9] 0.07 | [10] 0.021 | [11] -0.018 | [12] -0.191 | [13] 0.084 | [14] -0.052 | [15] -0.195 | [16] -0.006 | [17] -0.005 | [18] 0.023 | [19] 0.015 | [20] -0.024

ATP5F1B (UniProt P06576)
inactive: [1] -0.017 | [2] 0.007 | [3] -0.044 | [4] -0.003 | [5] -0.016 | [6] -0.023 | [7] -0.063 | [8] -0.011 | [9] -0.011 | [10] -0.02 | [11] 0 | [12] 0.072 | [13] -0.049 | [14] -0.007 | [15] 0.006 | [16] 0.006 | [17] -0.023 | [18] -0.023 | [19] -0.008 | [20] 0.05

ATP1A3 isoform 3 (UniProt P13637)
inactive: [1] -0.009 | [2] 0.018 | [3] -0.019 | [4] -0.016 | [5] 0.061 | [6] -0.02 | [7] -0.036 | [8] 0.001 | [9] -0.017 | [10] 0 | [11] 0.093 | [12] 0.073 | [13] -0.065 | [14] -0.032 | [15] 0.056 | [16] -0.022 | [17] -0.043 | [18] -0.027 | [19] -0.061 | [20] 0.163

ARL8B (UniProt Q9NVJ2)
inactive: [1] -0.001 | [2] 0.069 | [3] 0.027 | [4] 0.018 | [5] -0.014 | [6] 0.006 | [7] 0.02 | [8] -0.04 | [9] -0.014 | [10] -0.011 | [11] -0.082 | [12] -0.034 | [13] -0.01 | [14] -0.002 | [15] 0.055 | [16] 0.013 | [17] 0.001 | [18] -0.032 | [19] -0.033 | [20] -0.042

Reprinted at random: two records from the list
ATP6V1G1 (UniProt O75348)
inactive: [1] -0.049 | [2] 0.002 | [3] 0.037 | [4] 0.022 | [5] -0.009 | [6] -0.092 | [7] 0.006 | [8] -0.023 | [9] -0.005 | [10] 0.006 | [11] -0.066 | [12] -0.031 | [13] 0.002 | [14] -0.015 | [15] 0.028 | [16] -0.093 | [17] -0.065 | [18] -0.04 | [19] -0.037 | [20] -0.128

ATP5F1B (UniProt P06576)
inactive: [1] -0.017 | [2] 0.007 | [3] -0.044 | [4] -0.003 | [5] -0.016 | [6] -0.023 | [7] -0.063 | [8] -0.011 | [9] -0.011 | [10] -0.02 | [11] 0 | [12] 0.072 | [13] -0.049 | [14] -0.007 | [15] 0.006 | [16] 0.006 | [17] -0.023 | [18] -0.023 | [19] -0.008 | [20] 0.05

Next results follow:

ASCC1 isoform 2 (UniProt Q8N9N2)
inactive: [1] -0.055 | [2] 0.017 | [3] -0.007 | [4] 0.001 | [5] 0.038 | [6] -0.07 | [7] 0.029 | [8] -0.024 | [9] 0.048 | [10] 0.013 | [11] 0.017 | [12] 0.018 | [13] 0.057 | [14] 0.02 | [15] -0.041 | [16] -0.012 | [17] -0.054 | [18] 0.012 | [19] 0.02 | [20] -0.218

ASDURF (UniProt L0R819)
inactive: [1] -0.059 | [2] 0.05 | [3] 0.028 | [4] -0.035 | [5] -0.003 | [6] -0.026 | [7] -0.047 | [8] -0.034 | [9] -0.02 | [10] -0.018 | [11] 0.027 | [12] 0.164 | [13] -0.062 | [14] -0.01 | [15] 0.024 | [16] 0.003 | [17] -0.069 | [18] -0.006 | [19] -0.043 | [20] 0.006

ATP5MPL (UniProt P56378)
inactive: [1] 0.028 | [2] -0.036 | [3] 0 | [4] -0.027 | [5] 0.034 | [6] -0.027 | [7] 0.001 | [8] 0.004 | [9] -0.055 | [10] -0.01 | [11] 0.137 | [12] 0.087 | [13] -0.034 | [14] 0.235 | [15] 0.061 | [16] -0.041 | [17] 0.017 | [18] 0.006 | [19] -0.006 | [20] 0.156

ARL2 (UniProt P36404)
inactive: [1] 0.014 | [2] 0.031 | [3] 0.002 | [4] -0.001 | [5] -0.101 | [6] 0.016 | [7] -0.022 | [8] 0.015 | [9] 0.017 | [10] 0.013 | [11] 0.016 | [12] 0.12 | [13] -0.026 | [14] 0.095 | [15] 0.012 | [16] -0.003 | [17] 0.016 | [18] 0.016 | [19] -0.069 | [20] -0.112

ATP2A2 (UniProt P16615)
inactive: [1] 0.02 | [2] 0.015 | [3] -0.012 | [4] 0.012 | [5] -0.048 | [6] 0.019 | [7] 0.024 | [8] -0.028 | [9] 0.003 | [10] 0.019 | [11] -0.026 | [12] -0.123 | [13] 0.02 | [14] 0.008 | [15] -0.001 | [16] -0.044 | [17] 0.003 | [18] 0.041 | [19] -0.076 | [20] 0.036

ATG13 isoform 5 (UniProt O75143)
inactive: [1] -0.015 | [2] -0.024 | [3] 0.057 | [4] 0.006 | [5] 0.063 | [6] -0.003 | [7] -0.012 | [8] -0.012 | [9] 0.018 | [10] 0.028 | [11] 0.001 | [12] -0.118 | [13] -0.044 | [14] 0.049 | [15] -0.039 | [16] -0.065 | [17] -0.019 | [18] 0.027 | [19] -0.026 | [20] -0.016

ATM (UniProt Q13315)
inactive: [1] -0.049 | [2] -0.055 | [3] 0.131 | [4] -0.032 | [5] -0.027 | [6] 0.009 | [7] 0.002 | [8] 0.05 | [9] 0.019 | [10] 0.004 | [11] 0.008 | [12] -0.098 | [13] 0.029 | [14] 0.042 | [15] -0.008 | [16] -0.055 | [17] 0.018 | [18] 0.046 | [19] 0.007 | [20] -0.017

ATP5F1D (UniProt P30049)
inactive: [1] -0.032 | [2] -0.056 | [3] 0.093 | [4] 0.003 | [5] -0.017 | [6] -0.007 | [7] 0.005 | [8] -0.029 | [9] -0.003 | [10] 0.008 | [11] 0.028 | [12] -0.22 | [13] -0.025 | [14] 0.033 | [15] -0.016 | [16] 0.018 | [17] 0.023 | [18] -0.052 | [19] -0.004 | [20] 0.085

ARL15 (UniProt Q9NXU5)
inactive: [1] -0.003 | [2] -0.039 | [3] 0.042 | [4] -0.019 | [5] -0.068 | [6] 0.025 | [7] 0.01 | [8] -0.043 | [9] -0.013 | [10] -0.015 | [11] -0.114 | [12] -0.052 | [13] 0.01 | [14] 0.019 | [15] -0.023 | [16] -0.029 | [17] 0.066 | [18] -0.022 | [19] -0.016 | [20] 0

ARRB1 (UniProt P49407)
inactive: [1] -0.024 | [2] 0.005 | [3] 0.04 | [4] 0.002 | [5] -0.031 | [6] -0.004 | [7] 0.004 | [8] -0.114 | [9] -0.027 | [10] 0.003 | [11] -0.01 | [12] -0.023 | [13] 0.016 | [14] -0.021 | [15] 0.017 | [16] -0.073 | [17] -0.01 | [18] 0 | [19] -0.079 | [20] 0.068
